PubChem BioAssay AID504764 | Drosophila RNAi Screening Center – 2011

Screen: 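Genes whose knock-down alters Notch-dependent transcription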 (primary screen)
Cells: Drosophila Kc167 cells
Reagents: long dsRNA against Drosophila genes
Duration: about 5 days (4 days dsRNA, then 24 h after transfection)
Challenge: transfection of constitutively active membrane-tethered Notch lacking the extracellular domain, read 24 h later
Measured: 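Light from a Notch-responsive E(spl)m3 luciferase reporter under active Notch, with control-promoter and no-Notch reporter wells to normalise; raw counts from paired wells a and b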
Direction: induced reporter light, run 1, well a and induced reporter light, run 1, well b: higher = more light from the Notch target reporter with active Notch; control promoter light, run 1, well a and control promoter light, run 1, well b: higher = more light from the viral control promoter (cell number, transfection, viability); uninduced reporter light, run 1, well a: higher = more light from the Notch target reporter without active Notch
Call rule: 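Wells with low control signal or poorly matching duplicates excluded; duplicates averaged; per source plate, z beyond ±2 for induced/control log2 ratio or beyond ±1.8 for induced/uninduced marks a hit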
Calls: active = modifier hit (raised or lowered Notch signal); inactive = not a hit
In all, the deposit lists about 22,000 reagents; this is an unselected part of those that have a named target and a result. In the full data, 403 (1.9%) are marked active. 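Unnormalised raw counts per well; ratio z-scores behind the hit calls and whether each hit raises or lowers signal are not deposited.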 Not given: the amount of reagent.

predicted target,amplicon,"induced reporter light, run 1, well a","induced reporter light, run 1, well b","control promoter light, run 1, well a","control promoter light, run 1, well b","uninduced reporter light, run 1, well a",Call
CG2924,DRSC18525,1.67e5,2.06e5,2.94e5,2.87e5,14680,inactive
tho2,DRSC00646,35775,79835,73110,1.00e5,4655,inactive
qkr58E-3 (quaking related 58E-3),DRSC04711,1.84e5,2.29e5,1.69e5,1.94e5,16245,inactive
CG10600,DRSC02074,1.92e5,2.24e5,1.80e5,2.03e5,13775,inactive
Neto (Neuropilin and tolloid-like),DRSC18982,2.02e5,1.92e5,3.39e5,3.05e5,16465,inactive
Neto (Neuropilin and tolloid-like),DRSC19503,38740,39450,45130,44740,3310,inactive
Neto (Neuropilin and tolloid-like),DRSC19716,1.42e5,1.25e5,2.40e5,2.50e5,7610,inactive
Neto (Neuropilin and tolloid-like),DRSC19717,1.20e5,1.21e5,2.25e5,1.91e5,10855,inactive
Teh3 (tipE homolog 3),DRSC08537,1.32e5,1.33e5,2.19e5,1.33e5,11150,inactive
Prp39 (pre-mRNA processing factor 39),DRSC15133,41740,46020,43550,34420,2520,inactive
gem (gemini),DRSC06093,75470,70010,62400,74135,6710,inactive
gem (gemini),DRSC06847,2.29e5,2.16e5,2.79e5,2.51e5,16360,inactive
htk (hat-trick),DRSC20029,1.29e5,1.48e5,78300,81645,12205,active
htk (hat-trick),DRSC20031,1.15e5,1.38e5,92530,53700,8550,inactive
CG13074,DRSC09957,1.46e5,1.90e5,2.49e5,2.62e5,9190,inactive
CG7376,DRSC10829,1.17e5,98585,65230,22035,10185,inactive
CG9705,DRSC11094,90745,1.16e5,65450,90120,10985,inactive
sicily (severe impairment of CI with lengthened youth),DRSC19704,1.18e5,99850,1.95e5,1.91e5,6950,inactive
Mpcp1,DRSC07337,1.09e5,83935,95105,1.22e5,7955,inactive
PPO1 (Prophenoloxidase 1),DRSC05929,98805,1.04e5,1.86e5,3.04e5,9495,inactive
CR14117 (pseudo),DRSC10121,1.47e5,1.32e5,1.76e5,1.16e5,7250,inactive
His3.3A (Histone H3.3A),DRSC03343,6265,5020,10365,8715,1055,active

Not a retest: an excerpt of the list.
predicted target,amplicon,"induced reporter light, run 1, well a","induced reporter light, run 1, well b","control promoter light, run 1, well a","control promoter light, run 1, well b","uninduced reporter light, run 1, well a",Call
Neto (Neuropilin and tolloid-like),DRSC19503,38740,39450,45130,44740,3310,inactive
Neto (Neuropilin and tolloid-like),DRSC19716,1.42e5,1.25e5,2.40e5,2.50e5,7610,inactive
Neto (Neuropilin and tolloid-like),DRSC19717,1.20e5,1.21e5,2.25e5,1.91e5,10855,inactive
Teh3 (tipE homolog 3),DRSC08537,1.32e5,1.33e5,2.19e5,1.33e5,11150,inactive

The results go on.
predicted target,amplicon,"induced reporter light, run 1, well a","induced reporter light, run 1, well b","control promoter light, run 1, well a","control promoter light, run 1, well b","uninduced reporter light, run 1, well a",Call
CG32409,DRSC08780,2.31e5,2.42e5,2.67e5,2.14e5,17950,inactive
Cyp12c1 (Cytochrome P450 12c1),DRSC11125,1.37e5,1.17e5,96215,1.09e5,9430,inactive
C15,DRSC13495,74815,71135,1.02e5,61755,10390,inactive
C15,DRSC14169,1.70e5,1.52e5,1.14e5,1.12e5,10940,inactive
cold (coiled),DRSC00538,1.83e5,2.01e5,2.17e5,2.31e5,17445,inactive
Pink1 (PTEN-induced putative kinase 1),DRSC18361,1.90e5,1.68e5,1.93e5,1.71e5,14910,inactive
dbr (debra),DRSC00274,96175,2.12e5,2.14e5,2.90e5,18050,inactive
CG2816,DRSC00539,1.45e5,1.37e5,1.49e5,1.42e5,9850,inactive
stwl (stonewall),DRSC11400,15260,22730,8795,9480,6845,inactive
Taf12 (TBP-associated factor 12),DRSC16879,1.00e5,1.29e5,57605,47630,6245,inactive
Acsf3 (Acyl-CoA synthetase family member 3),DRSC18146,1.76e5,1.77e5,2.79e5,3.58e5,13442,inactive
CG4593,DRSC18374,1.60e5,1.53e5,3.22e5,2.75e5,12805,inactive
tum (tumbleweed),DRSC07575,49555,45155,1.01e5,96585,4992,active
Kdm4A (Lysine demethylase 4A),DRSC06586,1.54e5,1.65e5,1.59e5,1.60e5,13795,inactive
hop (hopscotch),DRSC20340,1.05e5,92485,1.42e5,1.50e5,6845,inactive
CG16952,DRSC19759,86270,73605,77270,77580,11645,inactive
MTA1-like (Metastasis associated 1-like),DRSC12382,46565,49300,22328,22775,6170,inactive
zen (zerknullt),DRSC12632,1.16e5,89700,85270,71400,7100,inactive
Nmt (N-myristoyl transferase),DRSC11236,1.83e5,1.74e5,1.99e5,1.38e5,15775,inactive
Os-C,DRSC16778,1.01e5,95815,77565,80400,6895,inactive
heix (heixuedian),DRSC03542,1.59e5,1.90e5,1.51e5,1.48e5,14860,inactive
CG10474,DRSC05993,34890,29815,34860,35640,3800,inactive
ND-B14 (NADH dehydrogenase (ubiquinone) B14 subunit),DRSC07029,1.41e5,1.53e5,2.18e5,2.42e5,15265,inactive
CG16775,DRSC10225,2.38e5,2.25e5,2.80e5,2.40e5,11440,inactive
Phm (Peptidylglycine-alpha-hydroxylating monooxygenase),DRSC04639,2.33e5,1.98e5,1.72e5,1.87e5,11905,inactive
PH4alphaMP (prolyl-4-hydroxylase-alpha MP),DRSC17031,1.41e5,1.38e5,1.96e5,1.64e5,10940,inactive
CG42710,DRSC01034,1.21e5,1.13e5,1.32e5,1.21e5,9742,inactive
CG3650,DRSC04401,1.87e5,1.53e5,1.76e5,1.28e5,13188,inactive
